{"source": "PubChem BioAssay AID493246 (Drosophila RNAi Screening Center, 2011)", "aim": "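Genes fly cells need to grow and stay alive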 (primary screen)", "system": "Drosophila Kc and S2R+ cells", "reagents": "long dsRNA against Drosophila genes", "measurement": "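Raw, unnormalised count of remaining cells in each well; per-plate z-scores of cell number underlie the calls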", "scale": "Kc cell number and S2R+ cell number: higher = more cells remaining", "call rule": "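Active when the per-plate z-score of cell number is 3 or more in the direction of fewer cells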", "note": "The deposit covers about 21,000 reagents; shown is an unselected part of those that have a named target and a result. Over the whole deposit, 429 (2%) are marked active. 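Values are raw and not normalised between plates; calls rest on per-plate z-scores that were not deposited.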 Entries without a mark were called inactive. Reagent sequences are not shown. Not given: the amount of reagent, the time to read-out."}
{"gene": "CG17919", "DRSC id": "DRSC12571", "Kc cell number, rep 1": 1.47e6, "Kc cell number, rep 2": 1.57e6, "S2R+ cell number, rep 1": 1.29e6, "S2R+ cell number, rep 2": 1.34e6}
{"gene": "CG31437", "DRSC id": "DRSC13711", "Kc cell number, rep 1": 1.33e6, "Kc cell number, rep 2": 1.33e6, "S2R+ cell number, rep 1": 9.95e5, "S2R+ cell number, rep 2": 1.12e6}
{"gene": "CG9536", "DRSC id": "DRSC03254", "Kc cell number, rep 1": 1.43e6, "Kc cell number, rep 2": 1.49e6, "S2R+ cell number, rep 1": 7.48e5, "S2R+ cell number, rep 2": 8.62e5}
{"gene": "Scgdelta", "DRSC id": "DRSC18544", "Kc cell number, rep 1": 1.62e6, "Kc cell number, rep 2": 1.62e6, "S2R+ cell number, rep 1": 1.03e6, "S2R+ cell number, rep 2": 1.17e6}

2 entries from above, reformatted.
CG31437 [DRSC13711] → Kc cell number, rep 1: 1.33e6; Kc cell number, rep 2: 1.33e6; S2R+ cell number, rep 1: 9.95e5; S2R+ cell number, rep 2: 1.12e6
CG9536 [DRSC03254] → Kc cell number, rep 1: 1.43e6; Kc cell number, rep 2: 1.49e6; S2R+ cell number, rep 1: 7.48e5; S2R+ cell number, rep 2: 8.62e5

Next reagents follow.
{"gene": "Nepl17", "DRSC id": "DRSC14880", "Kc cell number, rep 1": 1.55e6, "Kc cell number, rep 2": 1.58e6, "S2R+ cell number, rep 1": 1.09e6, "S2R+ cell number, rep 2": 1.20e6}
{"gene": "Dro", "DRSC id": "DRSC07406", "Kc cell number, rep 1": 1.58e6, "Kc cell number, rep 2": 1.53e6, "S2R+ cell number, rep 1": 1.17e6, "S2R+ cell number, rep 2": 1.37e6}
{"gene": "ND-ACP", "DRSC id": "DRSC08724", "Kc cell number, rep 1": 1.31e6, "Kc cell number, rep 2": 1.21e6, "S2R+ cell number, rep 1": 8.88e5, "S2R+ cell number, rep 2": 1.06e6}
{"gene": "uri", "DRSC id": "DRSC04111", "Kc cell number, rep 1": 1.40e6, "Kc cell number, rep 2": 1.47e6, "S2R+ cell number, rep 1": 1.18e6, "S2R+ cell number, rep 2": 1.26e6}
{"gene": "Spn28B", "DRSC id": "DRSC02982", "Kc cell number, rep 1": 1.52e6, "Kc cell number, rep 2": 1.59e6, "S2R+ cell number, rep 1": 1.05e6, "S2R+ cell number, rep 2": 1.15e6}
{"gene": "CkIIbeta", "DRSC id": "DRSC20230", "Kc cell number, rep 1": 1.50e6, "Kc cell number, rep 2": 1.53e6, "S2R+ cell number, rep 1": 9.30e5, "S2R+ cell number, rep 2": 1.02e6}
{"gene": "SF1", "DRSC id": "DRSC16844", "Kc cell number, rep 1": 1.54e6, "Kc cell number, rep 2": 1.68e6, "S2R+ cell number, rep 1": 1.03e6, "S2R+ cell number, rep 2": 1.24e6}
{"gene": "CG33777", "DRSC id": "DRSC08107", "Kc cell number, rep 1": 1.66e6, "Kc cell number, rep 2": 1.72e6, "S2R+ cell number, rep 1": 9.96e5, "S2R+ cell number, rep 2": 1.21e6}
{"gene": "Or85e (retired record)", "DRSC id": "DRSC16768", "Kc cell number, rep 1": 1.46e6, "Kc cell number, rep 2": 1.67e6, "S2R+ cell number, rep 1": 1.33e6, "S2R+ cell number, rep 2": 1.55e6}
{"gene": "CG32170", "DRSC id": "DRSC09452", "Kc cell number, rep 1": 1.69e6, "Kc cell number, rep 2": 1.78e6, "S2R+ cell number, rep 1": 1.21e6, "S2R+ cell number, rep 2": 1.34e6}
